Where two headings read alike, the source gives them in different places. These are yes or no findings as the source states them, for the method shown. Binding seen in cells or lysates may run through a third protein. A yes stands for co-enrichment or nearness to the bait. Other partners may have been found.
Tests used:
[1] = molecular target: N-terminal tagged Myc-HBc (hepatitis B virus capsid protein) (Hepatitis B virus) (UniProt P03146); experiment: affinity purification with mass spectrometry
[2] = molecular target: N-terminal tagged Myc-HBc (hepatitis B virus capsid protein) (Hepatitis B virus) (UniProt P03146); experiment: affinity purification with mass spectrometry; remark: listed apart in the source

By UniProt entry, the sequences of proteins in these tests, tags left out.
UniProt P03146: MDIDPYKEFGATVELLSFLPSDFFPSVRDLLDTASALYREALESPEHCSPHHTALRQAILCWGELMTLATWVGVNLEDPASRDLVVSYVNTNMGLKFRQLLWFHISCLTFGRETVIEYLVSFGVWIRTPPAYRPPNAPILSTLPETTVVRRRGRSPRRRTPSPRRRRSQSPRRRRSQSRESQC
UniProt Q9H3S7: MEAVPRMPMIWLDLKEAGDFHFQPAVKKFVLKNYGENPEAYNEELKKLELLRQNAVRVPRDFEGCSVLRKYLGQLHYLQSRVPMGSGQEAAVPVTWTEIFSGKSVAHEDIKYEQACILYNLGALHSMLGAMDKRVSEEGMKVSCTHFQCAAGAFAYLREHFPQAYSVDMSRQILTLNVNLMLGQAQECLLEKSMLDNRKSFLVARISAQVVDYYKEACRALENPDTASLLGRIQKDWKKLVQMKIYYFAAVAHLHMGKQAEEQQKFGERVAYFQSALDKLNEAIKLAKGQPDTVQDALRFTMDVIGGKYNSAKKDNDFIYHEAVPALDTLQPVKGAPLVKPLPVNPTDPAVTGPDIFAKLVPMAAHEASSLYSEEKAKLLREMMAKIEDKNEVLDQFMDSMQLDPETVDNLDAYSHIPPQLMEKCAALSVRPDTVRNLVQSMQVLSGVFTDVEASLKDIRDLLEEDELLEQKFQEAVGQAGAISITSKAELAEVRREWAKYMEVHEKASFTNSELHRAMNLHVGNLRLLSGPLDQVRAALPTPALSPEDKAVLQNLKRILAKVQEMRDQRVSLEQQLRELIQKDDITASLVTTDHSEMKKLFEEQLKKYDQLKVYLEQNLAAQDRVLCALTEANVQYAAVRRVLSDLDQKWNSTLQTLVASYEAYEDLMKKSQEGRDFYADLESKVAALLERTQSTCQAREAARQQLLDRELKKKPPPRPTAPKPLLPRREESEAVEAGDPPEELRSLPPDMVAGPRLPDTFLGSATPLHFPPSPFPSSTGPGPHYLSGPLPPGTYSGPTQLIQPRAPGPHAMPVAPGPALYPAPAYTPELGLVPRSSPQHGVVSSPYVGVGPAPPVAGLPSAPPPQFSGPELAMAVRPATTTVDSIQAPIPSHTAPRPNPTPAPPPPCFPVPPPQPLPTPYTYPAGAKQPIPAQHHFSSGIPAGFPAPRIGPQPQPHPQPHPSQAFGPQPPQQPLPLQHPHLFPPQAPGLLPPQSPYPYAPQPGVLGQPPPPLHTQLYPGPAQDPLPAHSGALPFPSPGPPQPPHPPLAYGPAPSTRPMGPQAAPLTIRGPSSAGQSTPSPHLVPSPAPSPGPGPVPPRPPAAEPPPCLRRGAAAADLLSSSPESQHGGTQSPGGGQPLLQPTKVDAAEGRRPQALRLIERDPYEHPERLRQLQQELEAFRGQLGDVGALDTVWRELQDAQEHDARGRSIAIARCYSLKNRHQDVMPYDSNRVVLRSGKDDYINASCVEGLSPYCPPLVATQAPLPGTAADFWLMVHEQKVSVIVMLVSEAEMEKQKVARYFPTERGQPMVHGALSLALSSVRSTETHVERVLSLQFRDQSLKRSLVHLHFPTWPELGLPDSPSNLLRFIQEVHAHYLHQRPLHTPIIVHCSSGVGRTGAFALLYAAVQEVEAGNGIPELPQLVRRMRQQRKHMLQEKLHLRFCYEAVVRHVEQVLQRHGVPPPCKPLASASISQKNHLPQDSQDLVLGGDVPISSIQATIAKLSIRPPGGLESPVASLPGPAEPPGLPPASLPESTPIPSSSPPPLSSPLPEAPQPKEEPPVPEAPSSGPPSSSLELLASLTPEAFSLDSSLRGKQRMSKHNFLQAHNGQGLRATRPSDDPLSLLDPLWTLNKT
UniProt Q99816: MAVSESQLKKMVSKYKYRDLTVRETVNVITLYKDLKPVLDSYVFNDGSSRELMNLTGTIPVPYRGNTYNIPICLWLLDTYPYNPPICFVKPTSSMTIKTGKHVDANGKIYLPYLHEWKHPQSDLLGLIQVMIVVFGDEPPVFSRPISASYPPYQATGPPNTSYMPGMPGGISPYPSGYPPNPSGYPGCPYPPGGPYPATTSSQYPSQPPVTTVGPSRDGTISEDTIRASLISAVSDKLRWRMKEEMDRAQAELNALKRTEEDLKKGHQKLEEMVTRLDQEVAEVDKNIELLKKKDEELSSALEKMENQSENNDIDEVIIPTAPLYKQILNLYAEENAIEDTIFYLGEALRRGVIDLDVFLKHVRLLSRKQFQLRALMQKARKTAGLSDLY

Molecule | binding [1] | binding [2]
PTPN23 (from UniProt Q9H3S7 1-1636) | binds | –
tumor susceptibility gene 101 (TSG101), endogenous (from UniProt Q99816 1-390) | binds | –
CHP1 (protein, UniProt Q99653 1-195) MGSRASTLLRDEELEEIKKETGFSHSQITRLYSRFTSLDKGENGTLSREDFQRIPELAINPLGDRIINAFFPEGEDQVNFRGFMRTLAHFRPIEDNEKSKDVNGPEPLNSRSNKLHFAFRLYDLDKDEKISRDELLQVLRMMVGVNISDEQLGSIADRTIQEADQDGDSAISFTEFVKVLEKVDVEQKMSIRFLH | – | binds
EHD1 (protein, UniProt Q9H4M9 1-534) MFSWVSKDARRKKEPELFQTVAEGLRQLYAQKLLPLEEHYRFHEFHSPALEDADFDNKPMVLLVGQYSTGKTTFIRHLIEQDFPGMRIGPEPTTDSFIAVMHGPTEGVVPGNALVVDPRRPFRKLNAFGNAFLNRFMCAQLPNPVLDSISIIDTPGILSGEKQRISRGYDFAAVLEWFAERVDRIILLFDAHKLDISDEFSEVIKALKNHEDKIRVVLNKADQIETQQLMRVYGALMWSLGKIINTPEVVRVYIGSFWSHPLLIPDNRKLFEAEEQDLFKDIQSLPRNAALRKLNDLIKRARLAKVHAYIISSLKKEMPNVFGKESKKKELVNNLGEIYQKIEREHQISPGDFPSLRKMQELLQTQDFSKFQALKPKLLDTVDDMLANDIARLMVMVRQEESLMPSQVVKGGAFDGTMNGPFGHGYGEGAGEGIDDVEWVVGKDKPTYDEIFYTLSPVNGKITGANAKKEMVKSKLPNTVLGKIWKLADVDKDGLLDDEEFALANHLIKVKLEGHELPADLPPHLVPPSKRRHE | – | binds
LMAN1 (protein, UniProt P49257 31-510) DGVGGDPAVALPHRRFEYKYSFKGPHLVQSDGTVPFWAHAGNAIPSSDQIRVAPSLKSQRGSVWTKTKAAFENWEVEVTFRVTGRGRIGADGLAIWYAENQGLEGPVFGSADLWNGVGIFFDSFDNDGKKNNPAIVIIGNNGQIHYDHQNDGASQALASCQRDFRNKPYPVRAKITYYQNTLTVMINNGFTPDKNDYEFCAKVENMIIPAQGHFGISAATGGLADDHDVLSFLTFQLTEPGKEPPTPDKEISEKEKEKYQEEFEHFQQELDKKKEEFQKGHPDLQGQPAEEIFESVGDRELRQVFEGQNRIHLEIKQLNRQLDMILDEQRRYVSSLTEEISKRGAGMPGQHGQITQQELDTVVKTQHEILRQVNEMKNSMSETVRLVSGMQHPGSAGGVYETTQHFIDIKEHLHIVKRDIDNLVQRNMPSNEKPKCPELPPFPSCLSTVHFIIFVVVQTVLFIGYIMYRSQQEAAAKKFF | – | binds
